These are yes or no findings as the source states them, for the method shown. Binding seen in cells or lysates may run through a third protein. Some entries that bind do so weakly or less than the wild type.
Molecular target: GST-tagged Nipah virus V protein (NiV-V) (Nipah virus) (UniProt Q997F2)
Test: pull-down

Protein sequences, listed by entry. Tags and fused reporters are not part of them.
UniProt Q997F2: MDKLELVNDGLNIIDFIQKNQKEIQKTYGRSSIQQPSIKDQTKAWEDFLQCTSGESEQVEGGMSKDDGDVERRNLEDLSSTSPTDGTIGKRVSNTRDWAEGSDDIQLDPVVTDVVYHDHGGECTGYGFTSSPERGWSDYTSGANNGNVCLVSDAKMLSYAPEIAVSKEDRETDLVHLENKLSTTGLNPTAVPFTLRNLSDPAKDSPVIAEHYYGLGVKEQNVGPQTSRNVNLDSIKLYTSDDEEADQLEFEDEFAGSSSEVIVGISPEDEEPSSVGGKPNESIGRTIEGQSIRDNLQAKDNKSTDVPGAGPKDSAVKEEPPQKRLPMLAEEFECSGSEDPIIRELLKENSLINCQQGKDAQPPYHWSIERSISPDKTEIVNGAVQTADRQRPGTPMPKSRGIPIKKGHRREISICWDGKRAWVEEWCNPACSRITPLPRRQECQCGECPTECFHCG
UniProt P42224: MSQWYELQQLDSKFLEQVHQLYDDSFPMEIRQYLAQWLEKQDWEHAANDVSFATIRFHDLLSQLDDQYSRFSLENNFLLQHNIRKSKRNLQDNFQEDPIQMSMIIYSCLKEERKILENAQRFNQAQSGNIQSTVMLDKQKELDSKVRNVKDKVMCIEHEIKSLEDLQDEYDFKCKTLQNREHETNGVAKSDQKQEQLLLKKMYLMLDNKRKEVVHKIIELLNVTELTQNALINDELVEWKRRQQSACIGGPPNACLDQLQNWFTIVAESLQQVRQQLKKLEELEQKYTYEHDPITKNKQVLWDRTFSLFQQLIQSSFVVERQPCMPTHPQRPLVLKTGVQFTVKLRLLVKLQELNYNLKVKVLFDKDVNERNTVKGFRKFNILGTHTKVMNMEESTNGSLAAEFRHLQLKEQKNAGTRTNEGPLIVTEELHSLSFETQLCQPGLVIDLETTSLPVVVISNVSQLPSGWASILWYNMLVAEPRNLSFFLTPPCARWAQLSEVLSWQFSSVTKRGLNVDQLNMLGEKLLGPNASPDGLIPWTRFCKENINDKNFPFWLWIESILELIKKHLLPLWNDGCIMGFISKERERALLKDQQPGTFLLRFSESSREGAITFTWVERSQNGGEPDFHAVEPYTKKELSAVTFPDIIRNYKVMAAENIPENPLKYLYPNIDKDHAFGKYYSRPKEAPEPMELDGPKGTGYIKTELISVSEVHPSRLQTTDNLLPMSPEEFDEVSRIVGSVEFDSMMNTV

Substance: 3xFLAG-tagged human STAT1 (from UniProt P42224 1-750)
- binding: binds

From paper PMC3544715
